Literature values as cited in PMC6719874 (PLoS ONE, 2019).

System: 19 cancer cell lines
Conditions: read-out: average IC50; proliferating cells, 19 cancer cell lines ref 75-77

SMILES: CCC(CO)Nc1nc(NCc2ccccc2)c2ncn(C(C)C)c2n1 (stereo not shown) [R-roscovitine, 2-(1-ethyl-2-hydroxyethylamino)-6-benzylamino-9-isopropylpurine]
- IC50: ~16 µM
